Measurements published in article PMC11091053.
Results are given in words; binding and its absence hold for the method and conditions named. Binding seen in cells or lysates may run through a third protein. A yes stands for co-enrichment or nearness to the bait. Other partners may have been found.

The chains behind the UniProt entries cited, without tags or fusion partners. Where a name states a change or a piece, a line headed by the entry shows the natural chain unless it says otherwise.
UniProt P62897: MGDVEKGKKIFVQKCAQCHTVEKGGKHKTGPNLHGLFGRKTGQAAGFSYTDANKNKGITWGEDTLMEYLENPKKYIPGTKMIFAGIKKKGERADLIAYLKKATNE

Target: T1, Pirh2 (p53-induced RING-H2 protein), endogenous in N2A cells (mouse (endogenous in N2A)) (UniProt Q9CR50)
T1 sequence: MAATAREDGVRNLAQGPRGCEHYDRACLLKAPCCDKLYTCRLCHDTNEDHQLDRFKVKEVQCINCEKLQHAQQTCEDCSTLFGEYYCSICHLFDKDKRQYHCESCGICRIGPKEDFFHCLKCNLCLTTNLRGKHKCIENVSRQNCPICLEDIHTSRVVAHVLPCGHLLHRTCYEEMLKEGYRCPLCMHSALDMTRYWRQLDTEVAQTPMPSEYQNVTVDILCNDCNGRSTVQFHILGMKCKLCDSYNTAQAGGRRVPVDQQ
Assay: affinity purification with mass spectrometry; co-immunoprecipitation with Pirh2 antibody from N2A cell lysate (control and treated, with or without MG132) and tissue lysates of cortex and hippocampus; SDS-PAGE bands, trypsin digestion, MALDI-TOF/TOF, MASCOT

cytochrome c, endogenous in N2A cells (from UniProt P62897 1-105)
binding: binds
